{"source": "PubChem BioAssay AID1508600", "about": "(Functional Genomics Laboratory (NCATS/FGL), 2020)", "note": "In all, about 53,000 sequences went through this assay and about 3,700 (7%) were called active.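 How the source made its calls: active means gene knockdowns whose robust z-score for IL-1 alpha signal is at least 2 or at most -2, so actives lie on both sides; inactive means the rest.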 This is one part of the list.", "data": [{"experiment": "Components of the Cytosolic LPS Sensing Pathway: Gene Identification via Genome-wide siRNA Screen;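 further: robust z of the log signal after scaling to non-targeting control siRNA wells of the plate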", "settings": "RAW264.7 macrophages, IL-1a HTRF, actives lie on both sides, screened at 100 nM (by protocol), cells primed 5 h with Pam3CSK4 first", "outline": "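Cells (RAW264.7, 1×10^4 per well) were transfected with siRNA at 100 nM and cultured 48h at 37 degrees C. Pam3CSK4 was added for 5 hours; LipidA transfection followed for 24 hour. IL-1a was then measured by HTRF.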", "values": [{"sequence": "GCUCCUCUGUAUAAAUUUUTT against Zfp512", "z-score": "inactive: 0.706"}, {"sequence": "GGCUAACCACCCUCUUUCUTT against Rtn4rl1", "z-score": "inactive: -1.85"}, {"sequence": "GCGUAUUUGGUGUUAAAAATT against Iars", "z-score": "inactive: 0.417"}, {"sequence": "CCUUAUUUGGAUAUGCAGUTT against F2rl3", "z-score": "inactive: -0.0953"}, {"sequence": "GUUUUGGAACUUGUGAUGATT against Wfdc18", "z-score": "inactive: -1.59"}, {"sequence": "GGAGACUGAAGGAAAUUAATT against 2810025M15Rik", "z-score": "inactive: 0.774"}, {"sequence": "GGACAGGGAAAAGUCCCAUTT against St6galnac6", "z-score": "inactive: 0.515"}, {"sequence": "GCAGCGAGUACUAUAUCCGTT against Lmtk3", "z-score": "inactive: 1.77"}, {"sequence": "GGUUAUCAGAAGUGGAGAGTT against Reg3d", "z-score": "inactive: 0.387"}, {"sequence": "GGAGGUGGAAUCUUUCCCUTT against Aplp1", "z-score": "inactive: -1.68"}, {"sequence": "CCGGUAAUGGUGAUAAUUGTT against Sall2", "z-score": "inactive: -0.729"}, {"sequence": "GGGCAUCUAUCUAUUUACCTT against Mrpl55", "z-score": "inactive: 0.203"}, {"sequence": "GGAUUUGUGAAGCAGAUAATT against Serinc3", "z-score": "inactive: -0.791"}, {"sequence": "GGAUGACUGUUACAUUAGGTT against Samd5", "z-score": "inactive: 0.227"}, {"sequence": "GGGAGUUUAUUCAAAAGUGTT against Nrbp1", "z-score": "inactive: 1.12"}, {"sequence": "CGAGGAUGAGUUCAGUGAGTT against Pdcl3", "z-score": "inactive: -1.19"}, {"sequence": "GGGAGUGAUUUAAAGUUUCTT against L3mbtl3", "z-score": "inactive: -0.569"}, {"sequence": "GGACAUCUAUGAGUUUAGCTT against Plekhg2", "z-score": "inactive: -0.794"}, {"sequence": "GGUCAAUGUUUUAGUCAUATT against Olfr1138", "z-score": "inactive: -0.000857"}, {"sequence": "GGUACUGACGCAUCUGAGGTT against Spata5l1", "z-score": "inactive: 1.53"}, {"sequence": "GGUUCAGUUAAGUAAACAGTT against Cdh17", "z-score": "inactive: -0.611"}, {"sequence": "GGAAUUGAACAACCUGUUGTT against Anapc5", "z-score": "inactive: 0.218"}, {"sequence": "GGAUUUGUACACACUUCAATT against Tcim", "z-score": "inactive: 1.48"}, {"sequence": "GCUGUUACUCUUAAACAAATT against Pdhx", "z-score": "inactive: 0.254"}, {"sequence": "CCCUACUGUAUUAGAAAACTT against Dnph1", "z-score": "active: 2.1"}, {"sequence": "CCAAGGUAGAGGUGGCGAATT against Pick1", "z-score": "inactive: 0.779"}, {"sequence": "GCAACGCAGUACUCUACCCTT against Tns2", "z-score": "inactive: 0.557"}, {"sequence": "GGCCGUAGGCAAUAUCUUATT against Fry", "z-score": "inactive: -0.52"}, {"sequence": "CCGCCUAAAAUCAGAAGCATT against Hepacam", "z-score": "inactive: -1.87"}]}]}
